{"sequences": {"note": "Amino acid sequences for entries named in this document (tags omitted). A change or cut given only in a name is not applied to a line headed by its entry.", "UniProt P51450": "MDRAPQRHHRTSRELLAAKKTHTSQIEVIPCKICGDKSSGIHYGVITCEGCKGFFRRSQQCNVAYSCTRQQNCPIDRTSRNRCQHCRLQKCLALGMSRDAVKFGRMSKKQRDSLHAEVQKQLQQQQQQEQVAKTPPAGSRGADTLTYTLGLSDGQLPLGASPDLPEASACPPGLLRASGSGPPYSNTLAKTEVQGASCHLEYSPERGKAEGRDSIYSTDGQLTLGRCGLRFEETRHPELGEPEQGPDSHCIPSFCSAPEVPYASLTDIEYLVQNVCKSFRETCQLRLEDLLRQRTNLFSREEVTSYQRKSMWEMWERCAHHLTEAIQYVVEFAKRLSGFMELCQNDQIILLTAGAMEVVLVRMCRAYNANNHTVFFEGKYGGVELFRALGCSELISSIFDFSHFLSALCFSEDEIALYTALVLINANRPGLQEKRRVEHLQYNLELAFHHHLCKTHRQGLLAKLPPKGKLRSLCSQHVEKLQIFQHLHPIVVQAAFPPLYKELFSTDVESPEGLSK"}, "source": "PubChem BioAssay AID2551", "about": "(National Center for Advancing Translational Sciences (NCATS), 2010)", "note": "The campaign covered roughly 310,000 compounds. About 17,000 (5.5%) were called active. Inconclusive results, whose numbers are uncertain, are shown with a selection of clear calls. The call rests on the fitted dose curve; in most records, active means well fitted inhibition curve with a large enough effect; inconclusive means small, poorly fitted or top-dose-only effect, or effect the other way; inactive means no such curve, though single readings can be large or run the other way. Where the call is inconclusive, the potency comes from a doubtful curve fit. Potency means the concentration at half of the fitted maximal effect.", "data": [{"target": "Nuclear receptor ROR-gamma (Mus musculus) (UniProt P51450)", "assay": "qHTS for inhibitors of ROR gamma transcriptional activity; further: nearly all actives have a fitted effect of over 60% in size", "conditions": "Drosophila S2 Gal4-RORgamma UAS-luciferase reporter, 20 h; series mostly up to 53.6 µM", "procedure,_shortened": "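Stably transfected Drosophila Schneider cells are the test system, with ROR gamma fused to Gal4 and luciferase under UAS control; luminescence is read after 20 hr of 700 uM copper sulfate induction at ambient temperature.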", "values": [{"smiles": "COc1cccc(Cn2c(=O)c(C)nc3cnc(OC)nc32)c1", "Potency": "inactive"}, {"smiles": "NC(=O)CNC(=O)[C@@H]1CC2(CC(c3cccc(Br)c3)=NO2)CN1C(=O)c1ccc(Br)cc1", "note": "(stereo partly specified)", "Potency": "inconclusive: 12.6 µM [activator, single point]"}, {"smiles": "CCOc1cc(CNCCCN2CCOCC2)cc(Cl)c1OCC(=O)NC(C)(C)C", "Potency": "inactive"}, {"smiles": "Cc1ccc(C(=O)N/C(=C/C=C/c2ccccc2)C(=O)NCc2ccco2)cc1", "Potency": "inconclusive: 10 µM [activator, partial curve, poor fit]"}, {"smiles": "Clc1ccccc1N=C1NN=C(c2cccs2)CS1", "Potency": "active: 11.2 µM"}, {"smiles": "CCCCCCCCOC(=O)C[N+](C)(C)C/C=C(/C)Cl", "Potency": "inactive"}, {"smiles": "C=C(C)c1cccc(C(C)(C)NC(=O)Nc2cc(C)ccn2)c1", "Potency": "inconclusive: 11.2 µM [activator, partial curve]"}, {"smiles": "COc1ccc(OC)c(S(=O)(=O)Nc2ccc(Oc3ccccc3)cc2)c1", "Potency": "inconclusive: 15.8 µM [inhibitor, single point]"}, {"smiles": "CCOc1ccc(-n2c(N)c(C(=O)NCc3cccnc3)sc2=S)cc1", "Potency": "inactive"}, {"smiles": "C#CCN1C(=O)C(O)(CC(=O)c2cccc(OC)c2)c2ccccc21", "note": "(stereo unspecified)", "Potency": "inconclusive: 11.2 µM [activator, single point]"}, {"smiles": "COc1ccc(N2CCN(C(=O)CSc3nnc4c(C)cc5c(C)cc(C)cc5n34)CC2)cc1", "Potency": "inconclusive: 0.282 µM [activator, partial curve, poor fit]"}, {"smiles": "CCC(C)n1c(=S)[nH]c2c(sc3ccc([N+](=O)[O-])cc32)c1=O", "note": "(stereo unspecified)", "Potency": "active: 0.631 µM"}, {"smiles": "COc1cccc(NC(=S)NN2C(C)CCCC2C)c1", "note": "(stereo unspecified)", "Potency": "active: 2.24 µM"}, {"smiles": "O=C(c1ccccc1)n1c(=S)nc2ccccn21", "Potency": "inconclusive: 5.01 µM [inhibitor, full curve, poor fit]"}, {"smiles": "C/C(N)=C(/C#N)C(=O)CSc1nc2ccccc2c(=O)n1CCCOC(C)C", "Potency": "inconclusive: 7.94 µM [activator, partial curve]"}, {"smiles": "Cc1cc(NC(=O)c2cccs2)ncc1NC(=O)C(C)C", "Potency": "inconclusive: 14.1 µM [inhibitor, single point]"}, {"smiles": "CC(C)(C)NC(=O)Cn1nnc(-c2ccc(Cl)cc2)n1", "Potency": "inconclusive: 35.5 µM [activator, single point]"}, {"smiles": "O=C(CSc1nnc(-c2ccc(Cl)cc2)n1Cc1ccco1)Nc1ccc2c(c1)OCCO2", "Potency": "inconclusive: 5.62 µM [activator, partial curve, poor fit]"}, {"smiles": "CC(C)(C)c1ccc(C(=O)CC(=O)c2cc(Cl)ccc2O)cc1", "Potency": "active: 11.2 µM"}, {"smiles": "CCOC(=O)C1=C(N)n2c(s/c(=C\\c3ccco3)c2=O)=C(C(=O)OC(C)C)C1c1ccco1", "note": "(stereo unspecified)", "Potency": "inconclusive: 14.1 µM [inhibitor, partial curve, poor fit]"}, {"smiles": "Cn1c(SC(C(=O)Nc2ccc(F)cc2)c2ccccc2)nc2ccccc21", "note": "(stereo unspecified)", "Potency": "active: 11.2 µM"}, {"smiles": "Cc1cccn2c(Nc3ccccc3)c(-c3ccccn3)nc12", "Potency": "active: 3.16 µM"}, {"smiles": "Cc1noc(/C=C/c2ccccc2F)c1S(=O)(=O)N1CCC(C(=O)N2CCN(C)CC2)CC1", "Potency": "inactive"}, {"smiles": "CN(C1CCCCC1)S(=O)(=O)c1ccc(NC(=O)c2ccc(Br)o2)cc1", "Potency": "inactive"}, {"smiles": "Cc1ccc(C(C)C)cc1NC(=O)Nc1ccc([N+](=O)[O-])cc1", "Potency": "active: 35.5 µM"}, {"smiles": "O=C(c1cc([N+](=O)[O-])cc([N+](=O)[O-])c1)N(c1ccccn1)c1ccccn1", "Potency": "inconclusive: 12.6 µM [inhibitor, single point]"}, {"smiles": "CCSC1(SCC)N=C(N)C2(C#N)C(c3ccc(F)cc3)C12C#N", "note": "(stereo unspecified)", "Potency": "inconclusive: 35.5 µM [inhibitor, single point]"}, {"smiles": "CS(=O)(=O)n1nc(-c2ccc(Cl)cc2)nc1N", "Potency": "inactive"}, {"smiles": "CCc1ccc(N(CC)C(=O)c2cn(C)c(=O)c3ccccc23)cc1", "Potency": "inactive"}, {"smiles": "CCC(C)n1c(SCC(=O)NC(=O)c2cccn2C)nc2ccccc2c1=O", "note": "(stereo unspecified)", "Potency": "active: 14.1 µM"}, {"smiles": "O=C(c1cc2nc(-c3ccc(F)cc3)cc(C(F)(F)F)n2n1)N1CCCCC1c1cccnc1", "note": "(stereo unspecified)", "Potency": "inconclusive: 35.5 µM [inhibitor, single point]"}, {"smiles": "Cc1nc2ccccc2cc1C(=O)N/N=C/c1ccco1", "Potency": "inconclusive: 22.4 µM [inhibitor, single point]"}, {"smiles": "CCn1cc([N+](=O)[O-])c(C(=O)N2N=C(c3ccc(O)c(OC)c3)CC2c2ccccc2O)n1", "note": "(stereo unspecified)", "Potency": "inconclusive: 1.78 µM [inhibitor, partial curve]"}, {"smiles": "Nc1nonc1-n1nnc(C(=O)N/N=C/c2c(Cl)cccc2Cl)c1CSC1=NCCS1", "Potency": "inactive"}, {"smiles": "CCn1c(CSCc2ccc(C)cc2)nnc1SCC(=O)N1CCN(c2ccccc2)CC1", "Potency": "inactive"}, {"smiles": "CC(C)NC(=S)N/N=C/c1ccccc1[N+](=O)[O-]", "Potency": "active: 1.78 µM"}, {"smiles": "O=C(Cc1ccccc1)Nc1ccccc1C(=O)Nc1ccccc1", "Potency": "inconclusive: 10 µM [activator, partial curve]"}, {"smiles": "Cc1cc(NC(=O)CCC(=O)N(Cc2ccco2)C(C(=O)NC2CCCCC2)c2cccs2)no1", "note": "(stereo unspecified)", "Potency": "inconclusive: 20 µM [activator, partial curve, poor fit]"}, {"smiles": "O=c1cc(-c2ccccc2)nc2c(-c3ccccc3)c(C(F)(F)F)[nH]n12", "Potency": "inactive"}, {"smiles": "CCCCOc1ccc(S(=O)(=O)N2CCCCC2)cc1", "Potency": "inconclusive: 35.5 µM [activator, single point]"}, {"smiles": "COc1cccc(CN2CCCN(S(=O)(=O)c3ccc(Br)cc3)CC2)c1", "Potency": "inconclusive: 17.8 µM [activator, single point]"}, {"smiles": "COC(=O)c1ccccc1NC(NC(=O)c1ccco1)C(=O)c1ccccc1", "note": "(stereo unspecified)", "Potency": "inconclusive: 0.112 µM [inhibitor, full curve, poor fit]"}, {"smiles": "Cc1cc(Cl)c(S(=O)(=O)Nc2ccc(Cl)cn2)cc1OCC(N)=O", "Potency": "inconclusive: 17.8 µM [inhibitor, single point]"}, {"smiles": "O=C(NN1CCOCC1)c1cc(Cl)ccc1Cl", "Potency": "inactive"}, {"smiles": "CCN(CC(=O)Nc1c(F)cccc1F)C(=O)c1n[nH]c2ccccc12", "Potency": "inconclusive: 3.55 µM [activator, single point]"}, {"smiles": "O=C(CCc1nc(-c2ccccc2Cl)no1)Nc1cccnc1", "Potency": "inconclusive: 22.4 µM [activator, single point]"}, {"smiles": "Cc1c(CCC(=O)NCCCN2CCCC2=O)c(=O)oc2cc(O)ccc12", "Potency": "inactive"}, {"smiles": "COc1cc(-c2nc(CN3CCN(c4ncccn4)CC3)c(C)o2)ccc1F", "Potency": "inconclusive: 7.94 µM [inhibitor, partial curve]"}, {"smiles": "COCc1ccc(C(=O)N2CCCC(C(=O)c3ccc(SC)cc3)C2)s1", "note": "(stereo unspecified)", "Potency": "inconclusive: 28.2 µM [activator, single point]"}, {"smiles": "CCOC(=O)c1c(NC(=S)Nc2ccc(C)cc2)sc2c1CCC2", "Potency": "active: 6.31 µM"}, {"smiles": "Cc1ccn2c(NC3CCCC3)c(-c3ccccn3)nc2c1", "Potency": "active: 3.55 µM"}, {"smiles": "CCNc1ccc(C(=O)OCC(=O)N2c3ccccc3NC(=O)C2(C)C)cc1[N+](=O)[O-]", "Potency": "inconclusive: 11.2 µM [activator, partial curve]"}, {"smiles": "COC(=O)N/N=C/c1ccc(-c2ccc(Cl)c(Cl)c2)o1", "Potency": "inconclusive: 28.2 µM [activator, partial curve]"}, {"smiles": "CCOC(=O)N/N=C/C=C/c1ccccc1[N+](=O)[O-]", "Potency": "inconclusive: 0.631 µM [activator, full curve, poor fit]"}, {"smiles": "Cc1cccnc1Nc1nc(-c2ccc(F)cc2)cs1", "Potency": "inconclusive: 31.6 µM [inhibitor, single point]"}, {"smiles": "COc1cccc(-c2csc(N3CCN(C(=O)Nc4ccccc4Cl)CC3)n2)c1", "Potency": "inconclusive: 17.8 µM [inhibitor, single point]"}, {"smiles": "CC(Sc1nc(N)cc(=O)[nH]1)C(=O)Nc1cccc(Cl)c1", "note": "(stereo unspecified)", "Potency": "inconclusive: 15.8 µM [activator, partial curve]"}, {"smiles": "Cc1ccc(OCCOCCN2CCN(C)CC2)c([N+](=O)[O-])c1", "Potency": "inactive"}, {"smiles": "CCCCCNc1nc(-c2ccccc2)nc(-n2ccnc2)n1", "Potency": "inconclusive: 3.16 µM [inhibitor, full curve, poor fit]"}, {"smiles": "COc1cccc(NCc2cc(=O)oc3cc(-c4ccccc4)c(O)cc23)c1", "Potency": "inconclusive: 17.8 µM [activator, partial curve]"}, {"smiles": "O=C(CCc1ccccc1)Nc1nnc(-c2ccccn2)o1", "Potency": "inconclusive: 22.4 µM [inhibitor, single point]"}, {"smiles": "CCOc1ccccc1/C=C/C(=O)c1ccc(Cl)cc1", "Potency": "inactive"}, {"smiles": "O=C(NC(=O)c1cccc(OC(F)(F)C(F)F)c1)OC1CCS(=O)(=O)C1", "note": "(stereo unspecified)", "Potency": "inconclusive: 31.6 µM [activator, single point]"}, {"smiles": "O=[N+]([O-])c1ccc(-c2cnc(NO)nc2)cc1", "Potency": "inconclusive: 6.31 µM [inhibitor, partial curve, poor fit]"}, {"smiles": "COc1ccc(C2/C=C\\CN(Cc3ccccc3)CC(=O)N2Cc2ccc(F)cc2)cc1", "note": "(stereo unspecified)", "Potency": "inconclusive: 35.5 µM [activator, single point]"}, {"smiles": "O=C(/C=C/c1ccco1)Oc1cc(Br)cc(/C=N/NC(=O)c2ccccc2O)c1", "Potency": "active: 3.16 µM"}, {"smiles": "N=c1oc2ccccc2cc1C(=O)Nc1ccccc1", "Potency": "inconclusive: 25.1 µM [inhibitor, single point]"}, {"smiles": "CC(C)CCN1C(=O)c2ccc(C(=O)NCc3ccco3)cc2C1=O", "Potency": "inconclusive: 12.6 µM [activator, single point]"}, {"smiles": "NC(=S)N/N=C1\\CC(c2ccc3c(c2)OCCO3)Oc2ccc(F)cc21", "note": "(stereo unspecified)", "Potency": "active: 6.31 µM"}, {"smiles": "Cc1ccc2nc(NC(=O)C3CC3C)sc2c1", "note": "(stereo unspecified)", "Potency": "active: 7.08 µM"}, {"smiles": "Cc1nc2cc(NCc3ccc(Cl)cc3)ccc2n1C", "Potency": "inconclusive: 11.2 µM [inhibitor, single point]"}]}]}
